The results in this text go back to PMC10127389.

These are yes or no findings as the source states them, for the method shown. Binding seen in cells or lysates may run through a third protein. A result given as binding can be weak or reduced; the word gives no strength. Where a sequence is shown, tags or fusion partners need not be part of it.

Assay [1] has as its target T1, human MLF2 (human myeloid leukemia factor 2), HA-tagged, expressed from pPhMLF2 in G. lamblia (human) (UniProt Q15773).
T1 sequence: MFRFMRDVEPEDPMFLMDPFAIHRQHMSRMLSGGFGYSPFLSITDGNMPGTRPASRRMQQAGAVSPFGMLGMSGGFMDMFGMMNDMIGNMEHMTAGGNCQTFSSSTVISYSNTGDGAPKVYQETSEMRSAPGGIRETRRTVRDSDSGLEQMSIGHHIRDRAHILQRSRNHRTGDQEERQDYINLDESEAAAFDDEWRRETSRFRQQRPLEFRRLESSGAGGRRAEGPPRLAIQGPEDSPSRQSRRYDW
Description: co-IP; lysates of pPhMLF2 stable transfectants of G. lamblia in growth medium; precipitated with anti-HA antibody conjugated to beads; Western blot with anti-HA, anti-MLF and anti-RAN; 5'Δ5N-Pac cell line as control.

The target of assay [2] is Giardia lamblia myeloid leukemia factor (MLF), endogenous (G. lamblia (endogenous in WB clone C6 trophozoites)) (UniProt E2RTV5). Put plainly: co-IP; reciprocal: lysates of pPhMLF2 stable transfectants incubated with 2 μg anti-MLF antibody for 2 h, then protein G plus/protein A-agarose for 1 h; preimmune serum as negative control; Western blot with anti-MLF and anti-HA. (In general: Immunoblotting shows a protein as a band on a membrane.)

As to “Giardia lamblia myeloid leukemia factor (MLF), endogenous (from UniProt E2RTV5)”, the binding result in assay [1] is “binds”.

B1: human MLF2 (human myeloid leukemia factor 2), HA-tagged, expressed from pPhMLF2 in G. lamblia (protein, UniProt Q15773 1-248)
chain: MFRFMRDVEPEDPMFLMDPFAIHRQHMSRMLSGGFGYSPFLSITDGNMPGTRPASRRMQQAGAVSPFGMLGMSGGFMDMFGMMNDMIGNMEHMTAGGNCQTFSSSTVISYSNTGDGAPKVYQETSEMRSAPGGIRETRRTVRDSDSGLEQMSIGHHIRDRAHILQRSRNHRTGDQEERQDYINLDESEAAAFDDEWRRETSRFRQQRPLEFRRLESSGAGGRRAEGPPRLAIQGPEDSPSRQSRRYDW
As to B1, the binding result in assay [2] is listed as “binds”.
